Measured values taken from US4294843A, “Anti-protozoal oxadiazole derivatives” (Burroughs Wellcome Co., priority 1978, dated 1981).
The name of at least one read-out is uncertain.

System: P. berghei
Assay: percentage inhibition of P. berghei (blood parasitaemia) in mice, seven oral doses
Assay type: in vivo
Settings: 7 × 100 mg/kg oral, parasitaemia on fourth day
From the text: Groups of five mice were inoculated intraperitoneally with the normal strain of P. berghei. The mice on test received seven oral doses of drug beginning on the afternoon of the day of infection then twice a day for the following three days. Blood parasitaemias were estimated on the fourth day and compared with those of the untreated controls.
The results are given in Table 1, the results being expressed as percentage inhibition of P. berghei.

For `Nc1ccccc1SCc1noc(CSc2ccccc2N)n1` [Example 13, 3,5-Di-(2-aminophenylthiomethyl)-1,2,4-oxadiazole], the “% inhibition” value (100 mg/kg) was 100% and the “% inhibition” value (listed as 49, 100 mg/kg) was 76%.
